Results from PMC4022466, “Spermatid Cyst Polarization in Drosophila Depends upon apkc and the CPEB Family Translational Regulator orb2”.
For at least one entry, the source does not settle the construct or the ends of the probe. At least one verdict was read from the data and is not stated in words by the source. Tags and fusion partners may be left off the protein sequences shown.

Target: T1, Orb2-RRM (GST-Orb2 C-terminus) (UniProt Q9VSR3)
T1 sequence (looked up, limits assumed): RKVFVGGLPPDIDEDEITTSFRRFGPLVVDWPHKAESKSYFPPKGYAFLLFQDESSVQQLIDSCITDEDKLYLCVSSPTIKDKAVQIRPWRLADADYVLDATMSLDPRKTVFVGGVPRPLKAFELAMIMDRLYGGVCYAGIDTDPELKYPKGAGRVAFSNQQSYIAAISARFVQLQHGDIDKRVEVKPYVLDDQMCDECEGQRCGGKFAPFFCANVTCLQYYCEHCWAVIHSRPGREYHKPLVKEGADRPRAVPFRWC
Experiment: EMSA
Details: labeled 24 nt oligo as probe, equivalent results; 25 mM Tris pH 7.5; recombinant protein; protein details: GST

ACUUUUGUUUUUAAUGCAUUCCAC [Comp-CPE (competitor A)]
binding result: binds
